Results: ChEMBL document CHEMBL5154664, “Imidazolylacetophenone oxime-based multifunctional neuroprotective agents: Discovery and structure-activity relationships” (Eur J Med Chem, 2022)

Test: Inhibition of LPS induced NO production in mouse BV-2 cells by Griess reagent based analysis
Format: functional, cell-based

Clc1ccc(CO/N=C(\Cn2ccnc2)c2ccc(Cl)cc2Cl)c(Cl)c1 [OXICONAZOLE]
EC50: 13.5 µM
